Data reported in US20240360222A1.
No constants are given. Whether binding was seen depends on the method and setting. Some entries that bind do so weakly or less than the wild type.

Chains of the proteins cited; added tags and fusions are not shown. Lines headed by an entry give the natural chain unless they say otherwise; changes in a name come on top.
UniProt P26010: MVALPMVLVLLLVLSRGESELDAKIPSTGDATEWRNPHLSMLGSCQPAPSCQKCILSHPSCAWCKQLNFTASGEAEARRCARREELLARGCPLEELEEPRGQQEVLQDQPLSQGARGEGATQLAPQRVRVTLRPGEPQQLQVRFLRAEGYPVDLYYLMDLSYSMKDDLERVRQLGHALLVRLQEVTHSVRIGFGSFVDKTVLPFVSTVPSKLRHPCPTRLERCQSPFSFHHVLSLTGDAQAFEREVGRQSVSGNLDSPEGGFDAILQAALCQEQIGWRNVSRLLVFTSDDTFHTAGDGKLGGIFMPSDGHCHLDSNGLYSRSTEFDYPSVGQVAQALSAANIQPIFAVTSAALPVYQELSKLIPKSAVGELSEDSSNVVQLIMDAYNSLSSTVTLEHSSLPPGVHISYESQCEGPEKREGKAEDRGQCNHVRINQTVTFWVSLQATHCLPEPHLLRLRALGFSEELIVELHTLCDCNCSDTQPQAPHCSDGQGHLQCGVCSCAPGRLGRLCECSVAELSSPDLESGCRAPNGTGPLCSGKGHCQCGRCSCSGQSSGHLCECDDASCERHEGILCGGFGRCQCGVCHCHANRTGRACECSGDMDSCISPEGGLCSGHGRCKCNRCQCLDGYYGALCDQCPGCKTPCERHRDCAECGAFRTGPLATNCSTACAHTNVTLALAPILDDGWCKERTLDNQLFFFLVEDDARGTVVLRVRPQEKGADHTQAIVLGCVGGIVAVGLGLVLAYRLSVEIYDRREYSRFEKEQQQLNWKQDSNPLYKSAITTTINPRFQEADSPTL

What was measured:
[1] = target: chimeric integrin β7 protein (#4945) (mouse; human) (UniProt P26011); assay: FACS of 293T cells transiently expressing the chimera
[2] = target: chimeric integrin β7 protein (#4944) (mouse; human) (UniProt P26011); assay: as above
[3] = target: human integrin β7 variant M41L/L42Q (human) (UniProt P26010); assay: FACS (MFI) of 293T cells expressing the variant; kept binding is implied by the sentence
[4] = target: human integrin β7 variant H38D (human) (UniProt P26010); assay: as above
[5] = target: human integrin β7 variant R35E/N36D (human) (UniProt P26010); assay: as above

binding [1]: binds
binding [2]: binds
binding [3]: binds
binding [4]: binds
binding [5]: binds
B1: MMG49 antibody (antibody, V domains shown)
VH: QVQLQQSGAELMKPGASVKISCKASGYTFSSYWIEWVKQRPGHGLEWIGEMLPGSGSSNYNEKFKGKATFTADTSSNTAYMQLSSLTSEDSAVYYCARGDGNYWYFDVWGAG
VL: QIVLSQSPAILSASPGEKVTMTCRASSSVGYMHWFQQKPGSSPKPWIYATSNLASGVPARFSGSESGTSYSLTISRVEAEDAATYYCQQWSSDPPTFGGGTKLEIK
